# PubChem BioAssay AID1259254, NCATS | 2017
# Assay: 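Genome-wide screen for genes that prevent DNA re-replication in cancer cells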 (primary screen)
# Cell system: human HCT116 colorectal cancer cells
# Reagent: single siRNA against human genes
# Duration: 3 days
# Read-out: 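Imaged Hoechst DNA stain sorts each cell into a cycle phase by DNA amount; per plate, G2 fraction set to 0% for non-targeting and 100% for GMNN siRNA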
# Direction: G2 robust z-score and G2 cells, % of GMNN control: higher = more G2 cells, more excess DNA replication; raw share of cells in G2: higher = larger share of cells with G2 DNA content
# Active means: 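Active siRNAs have a G2 robust z of 5 or more median absolute deviations over the median, which in these data means about 38% or higher of GMNN control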
# This is an unselected part of about 59,000 deposited reagents. About 1,550 of all reagents (2.6%) were called active. 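G2 share is only a proxy for re-replication; each gene was hit by three separate siRNAs, and active genes were retested.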 Raw values are not corrected between plates. The numbers tell different reagents against one gene apart. No sequences are given here. Not stated in the record: the amount of reagent.
gene knocked down,reagent no.,G2 robust z-score,"G2 cells, % of GMNN control",raw share of cells in G2 (%),Outcome
NIBAN2,1,-0.751,-2.31,3.57,inactive
NIBAN2,2,0.212,4.46,6.61,inactive
NIBAN2,3,2.93,23.6,8.92,inactive
NOD2,1,1.87,16.2,12.3,inactive
NOD2,2,-0.142,1.97,4.94,inactive
NOD2,3,-0.499,-0.541,4.16,inactive
CCDC167,1,-0.781,-2.53,2.7,inactive
CCDC167,2,1.28,12,6.97,inactive
CCDC167,3,-0.476,-0.383,2.64,inactive
CCDC25,1,-0.358,0.448,3.28,inactive
CCDC25,2,0.435,6.03,6.84,inactive
CCDC25,3,1.95,16.7,11.1,inactive
TBC1D31,1,-0.285,0.959,2.1,inactive
TBC1D31,2,0.086,3.57,5.52,inactive
TBC1D31,3,0.13,3.88,4.49,inactive
SART1,1,1.71,15,11.8,inactive
SART1,2,0.338,5.34,6.01,inactive
SART1,3,0.0413,3.26,4.5,inactive
ZCCHC14,1,0.985,9.9,8.87,inactive
ZCCHC14,2,-0.978,-3.91,2.52,inactive
ZCCHC14,3,-0.0945,2.3,4.04,inactive
ADH5P4,1,0.35,5.43,7.08,inactive
ADH5P4,2,0.269,4.86,6.06,inactive
ADH5P4,3,4.05,31.5,19.5,inactive
MTFR1L,1,1.13,10.9,8.65,inactive
MTFR1L,2,-0.0249,2.79,5.79,inactive
MTFR1L,3,-0.704,-1.99,2.4,inactive
PLK1,1,14.9,108,41.2,active
PLK1,2,11.7,85.1,34.1,active
PLK1,3,9.69,71.1,29.1,active
SH2D1B,1,-0.77,-2.45,1.1,inactive
SH2D1B,2,0.544,6.79,6.81,inactive
SH2D1B,3,-0.214,1.46,3.76,inactive
LPAR2,1,2.69,21.9,13.7,inactive
LPAR2,2,2.96,23.8,12.8,inactive
LPAR2,3,-0.409,0.0885,3.3,inactive
POP5,1,-1.33,-6.36,1.33,inactive
POP5,2,-0.867,-3.13,2.95,inactive
POP5,3,0.214,4.47,4.67,inactive
NXF1,1,1.29,12,10.9,inactive
NXF1,2,5.04,38.4,16.3,active
NXF1,3,0.691,7.83,9.57,inactive
ADCK5,1,-0.593,-1.2,3.3,inactive
ADCK5,2,0.571,6.99,7.76,inactive
ADCK5,3,-0.683,-1.84,4.52,inactive
PALD1,1,-0.581,-1.12,3.42,inactive
PALD1,2,0.0847,3.56,5.9,inactive
PALD1,3,-0.307,0.811,3.51,inactive
TMEM92,1,-0.346,0.531,2.93,inactive
TMEM92,2,0.867,9.07,6.85,inactive
TMEM92,3,-0.45,-0.201,2.89,inactive
ANKRD29,1,-0.655,-1.64,2.5,inactive
ANKRD29,2,0.177,4.21,5.24,inactive
ANKRD29,3,-0.844,-2.97,2,inactive
MAN2A2,1,-0.875,-3.19,4.21,inactive
MAN2A2,2,1.56,13.9,7.8,inactive
MAN2A2,3,-0.38,0.291,5.47,inactive
CHRNG,1,5.11,38.9,19.4,active
CHRNG,2,1.66,14.6,9.73,inactive
CHRNG,3,0.387,5.69,6.6,inactive
OR7G1,1,1.43,13,9.09,inactive
OR7G1,2,3.69,29,12.3,inactive
OR7G1,3,-0.0141,2.87,3.62,inactive
CHCHD5,1,-0.273,1.05,2.72,inactive
CHCHD5,2,0.378,5.63,5.98,inactive
CHCHD5,3,0.284,4.97,4.93,inactive
TERB2,1,1.5,13.5,8.36,inactive
TERB2,2,-0.171,1.76,3.46,inactive
TERB2,3,-0.272,1.05,3.44,inactive
KCNJ1,1,-0.475,-0.378,4.23,inactive
KCNJ1,2,-0.843,-2.96,4.21,inactive
KCNJ1,3,0.165,4.13,6.18,inactive
PITHD1,1,-0.379,0.303,4.47,inactive
PITHD1,2,0.104,3.7,6.23,inactive
PITHD1,3,0.0151,3.07,4,inactive
CSNK2B,1,3.14,25,13.9,inactive
CSNK2B,2,1.06,10.5,8.81,inactive
CSNK2B,3,-0.031,2.75,5.04,inactive
ZNF285,1,0.074,3.49,4.02,inactive
ZNF285,2,-0.127,2.07,6.85,inactive
ZNF285,3,1.16,11.1,7.13,inactive
PYGO2,1,0.918,9.42,8.08,inactive
PYGO2,2,0.828,8.79,5.76,inactive
PYGO2,3,1.31,12.2,6.79,inactive
KRTAP13-4,1,-0.235,1.32,3.67,inactive
KRTAP13-4,2,0.934,9.54,7.12,inactive
KRTAP13-4,3,0.147,4,4.59,inactive
